Source: PMC5118791
No constants are given. Whether binding was seen depends on the method and setting.

By UniProt entry, the sequences of proteins in these tests, tags left out. Residues count along the entry.
UniProt P16070, residues 21-742: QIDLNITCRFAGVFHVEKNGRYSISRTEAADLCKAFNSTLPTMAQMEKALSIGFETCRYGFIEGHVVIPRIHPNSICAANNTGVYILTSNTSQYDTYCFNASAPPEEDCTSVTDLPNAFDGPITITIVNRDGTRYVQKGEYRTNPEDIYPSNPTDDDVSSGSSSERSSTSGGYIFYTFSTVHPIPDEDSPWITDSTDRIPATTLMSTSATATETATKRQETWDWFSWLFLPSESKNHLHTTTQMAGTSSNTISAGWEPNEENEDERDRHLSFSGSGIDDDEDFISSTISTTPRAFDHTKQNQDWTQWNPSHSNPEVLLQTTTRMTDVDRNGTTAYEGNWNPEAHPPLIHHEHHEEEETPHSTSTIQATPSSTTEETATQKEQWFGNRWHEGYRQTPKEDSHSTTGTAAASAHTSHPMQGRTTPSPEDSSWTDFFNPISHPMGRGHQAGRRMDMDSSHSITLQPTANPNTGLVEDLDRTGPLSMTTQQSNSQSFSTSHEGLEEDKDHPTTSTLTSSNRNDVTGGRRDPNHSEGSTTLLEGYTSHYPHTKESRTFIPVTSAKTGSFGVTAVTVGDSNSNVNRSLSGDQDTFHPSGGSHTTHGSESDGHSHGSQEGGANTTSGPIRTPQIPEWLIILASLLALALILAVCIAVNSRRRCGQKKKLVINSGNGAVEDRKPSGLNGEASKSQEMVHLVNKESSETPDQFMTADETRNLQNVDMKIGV
UniProt P61604: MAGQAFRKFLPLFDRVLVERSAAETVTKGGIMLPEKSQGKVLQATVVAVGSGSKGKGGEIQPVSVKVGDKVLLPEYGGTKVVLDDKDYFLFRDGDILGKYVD

Molecular target: CD44, endogenous on MDA-MB-468 breast cancer cells (human (endogenous in MDA-MB-468)) (UniProt P16070)
Assay: flow cytometry on cells; MDA-MB-468 cells, 4 °C, 1 hr, PBS pH 7.4, 0.1% sodium azide, 1% BSA; indirect (FITC-rabbit anti-human Cpn10) or direct (488-CP7) detection; only the binder purified

## human Chaperonin 10 (hCpn10), wild type (from UniProt P61604 1-102)
  binding: no binding
